Measurements from paper PMC7501814.
No constants are given. Whether binding was seen depends on the method and setting. For some of these results: Binding seen in cells or lysates may run through a third protein. Some results given as binding are weak or reduced against the parent protein; the word gives no strength. Sequences can lack the tags named with a protein. Values belong to the binder of their own block, whether it stands above or below them.

Key:
[1] = target: T1, PIRIN2 (PRN2), full-length, yeast two-hybrid bait (pB27-PRN2) (Arabidopsis thaliana) (UniProt Q9ZW82); test: two-hybrid; large-scale yeast two-hybrid screen by Hybrigenics S.A. with full-length PRN2 as bait
T1 sequence: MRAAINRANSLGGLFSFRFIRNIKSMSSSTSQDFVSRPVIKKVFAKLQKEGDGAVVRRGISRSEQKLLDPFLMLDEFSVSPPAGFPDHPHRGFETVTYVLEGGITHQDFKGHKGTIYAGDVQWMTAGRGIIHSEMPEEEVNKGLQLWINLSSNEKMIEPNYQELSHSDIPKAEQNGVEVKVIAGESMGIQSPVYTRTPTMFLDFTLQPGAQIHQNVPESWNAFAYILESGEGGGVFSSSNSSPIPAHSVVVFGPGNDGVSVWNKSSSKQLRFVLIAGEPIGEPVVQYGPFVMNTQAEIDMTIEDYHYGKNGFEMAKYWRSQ

[2] = target: T1, PIRIN2 (PRN2), full-length, yeast two-hybrid bait (pB27-PRN2) (Arabidopsis thaliana); test: two-hybrid; targeted yeast two-hybrid: PRN2 bait vector (pB27) and HUB2 prey vector (pP6); growth on -Leu/-Trp/-His medium and beta-galactosidase reporter activity
[3] = target: T2, myc-tagged PRN2 (Arabidopsis thaliana) (UniProt Q9ZW82); test: co-IP; transient co-expression overnight in Arabidopsis root cell protoplasts; myc-tagged protein immunoprecipitated from total protein extracts with 9E10C anti-myc antibody and protein G-Sepharose, 2 h at 4 °C; washes in 1x PBS pH 7.4, 5% glycerol, 0.1% Igepal CA-630; HA-tagged protein detected by anti-HA western blot
T2 sequence: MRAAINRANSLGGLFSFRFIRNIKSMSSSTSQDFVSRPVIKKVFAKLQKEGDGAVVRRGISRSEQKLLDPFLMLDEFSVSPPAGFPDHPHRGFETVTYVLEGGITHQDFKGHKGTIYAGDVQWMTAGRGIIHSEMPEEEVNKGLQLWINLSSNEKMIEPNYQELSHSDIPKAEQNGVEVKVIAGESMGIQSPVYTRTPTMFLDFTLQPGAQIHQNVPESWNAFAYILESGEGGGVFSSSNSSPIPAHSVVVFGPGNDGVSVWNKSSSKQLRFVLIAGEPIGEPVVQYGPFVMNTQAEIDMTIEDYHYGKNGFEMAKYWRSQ

[4] = target: T3, myc-tagged HUB2 (Arabidopsis thaliana) (UniProt Q9C895); test: as above
T3 sequence: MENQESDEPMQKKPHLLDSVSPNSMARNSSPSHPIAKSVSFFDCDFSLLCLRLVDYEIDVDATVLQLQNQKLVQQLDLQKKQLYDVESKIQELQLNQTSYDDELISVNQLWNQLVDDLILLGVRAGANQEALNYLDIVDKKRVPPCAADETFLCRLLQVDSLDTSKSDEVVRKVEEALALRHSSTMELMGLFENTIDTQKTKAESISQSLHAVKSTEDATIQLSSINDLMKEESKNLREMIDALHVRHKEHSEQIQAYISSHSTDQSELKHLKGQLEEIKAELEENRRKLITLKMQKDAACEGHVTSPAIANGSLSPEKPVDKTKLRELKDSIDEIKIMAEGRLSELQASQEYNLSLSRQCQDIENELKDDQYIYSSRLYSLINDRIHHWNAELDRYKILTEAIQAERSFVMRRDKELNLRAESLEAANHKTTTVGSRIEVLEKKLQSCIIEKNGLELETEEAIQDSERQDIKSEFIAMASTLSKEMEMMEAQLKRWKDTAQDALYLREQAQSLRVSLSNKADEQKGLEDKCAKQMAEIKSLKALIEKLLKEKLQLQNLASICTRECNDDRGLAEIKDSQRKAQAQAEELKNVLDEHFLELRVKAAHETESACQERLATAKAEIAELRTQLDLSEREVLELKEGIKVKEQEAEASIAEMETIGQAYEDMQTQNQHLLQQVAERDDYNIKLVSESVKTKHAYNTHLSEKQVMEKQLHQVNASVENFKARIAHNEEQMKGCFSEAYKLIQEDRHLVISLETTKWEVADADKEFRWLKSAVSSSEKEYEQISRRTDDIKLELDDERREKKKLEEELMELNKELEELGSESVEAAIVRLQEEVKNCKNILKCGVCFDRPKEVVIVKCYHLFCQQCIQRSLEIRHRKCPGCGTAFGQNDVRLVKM

binding [1]: binds
binding [2]: binds
B1: HISTONE MONOUBIQUITINATION2 (HUB2), yeast two-hybrid prey (pP6-HUB2) (protein, UniProt Q9C895 1-900)
chain: MENQESDEPMQKKPHLLDSVSPNSMARNSSPSHPIAKSVSFFDCDFSLLCLRLVDYEIDVDATVLQLQNQKLVQQLDLQKKQLYDVESKIQELQLNQTSYDDELISVNQLWNQLVDDLILLGVRAGANQEALNYLDIVDKKRVPPCAADETFLCRLLQVDSLDTSKSDEVVRKVEEALALRHSSTMELMGLFENTIDTQKTKAESISQSLHAVKSTEDATIQLSSINDLMKEESKNLREMIDALHVRHKEHSEQIQAYISSHSTDQSELKHLKGQLEEIKAELEENRRKLITLKMQKDAACEGHVTSPAIANGSLSPEKPVDKTKLRELKDSIDEIKIMAEGRLSELQASQEYNLSLSRQCQDIENELKDDQYIYSSRLYSLINDRIHHWNAELDRYKILTEAIQAERSFVMRRDKELNLRAESLEAANHKTTTVGSRIEVLEKKLQSCIIEKNGLELETEEAIQDSERQDIKSEFIAMASTLSKEMEMMEAQLKRWKDTAQDALYLREQAQSLRVSLSNKADEQKGLEDKCAKQMAEIKSLKALIEKLLKEKLQLQNLASICTRECNDDRGLAEIKDSQRKAQAQAEELKNVLDEHFLELRVKAAHETESACQERLATAKAEIAELRTQLDLSEREVLELKEGIKVKEQEAEASIAEMETIGQAYEDMQTQNQHLLQQVAERDDYNIKLVSESVKTKHAYNTHLSEKQVMEKQLHQVNASVENFKARIAHNEEQMKGCFSEAYKLIQEDRHLVISLETTKWEVADADKEFRWLKSAVSSSEKEYEQISRRTDDIKLELDDERREKKKLEEELMELNKELEELGSESVEAAIVRLQEEVKNCKNILKCGVCFDRPKEVVIVKCYHLFCQQCIQRSLEIRHRKCPGCGTAFGQNDVRLVKM

binding [3]: binds
B2: HA-tagged HUB2 (protein, UniProt Q9C895 1-900)
chain: MENQESDEPMQKKPHLLDSVSPNSMARNSSPSHPIAKSVSFFDCDFSLLCLRLVDYEIDVDATVLQLQNQKLVQQLDLQKKQLYDVESKIQELQLNQTSYDDELISVNQLWNQLVDDLILLGVRAGANQEALNYLDIVDKKRVPPCAADETFLCRLLQVDSLDTSKSDEVVRKVEEALALRHSSTMELMGLFENTIDTQKTKAESISQSLHAVKSTEDATIQLSSINDLMKEESKNLREMIDALHVRHKEHSEQIQAYISSHSTDQSELKHLKGQLEEIKAELEENRRKLITLKMQKDAACEGHVTSPAIANGSLSPEKPVDKTKLRELKDSIDEIKIMAEGRLSELQASQEYNLSLSRQCQDIENELKDDQYIYSSRLYSLINDRIHHWNAELDRYKILTEAIQAERSFVMRRDKELNLRAESLEAANHKTTTVGSRIEVLEKKLQSCIIEKNGLELETEEAIQDSERQDIKSEFIAMASTLSKEMEMMEAQLKRWKDTAQDALYLREQAQSLRVSLSNKADEQKGLEDKCAKQMAEIKSLKALIEKLLKEKLQLQNLASICTRECNDDRGLAEIKDSQRKAQAQAEELKNVLDEHFLELRVKAAHETESACQERLATAKAEIAELRTQLDLSEREVLELKEGIKVKEQEAEASIAEMETIGQAYEDMQTQNQHLLQQVAERDDYNIKLVSESVKTKHAYNTHLSEKQVMEKQLHQVNASVENFKARIAHNEEQMKGCFSEAYKLIQEDRHLVISLETTKWEVADADKEFRWLKSAVSSSEKEYEQISRRTDDIKLELDDERREKKKLEEELMELNKELEELGSESVEAAIVRLQEEVKNCKNILKCGVCFDRPKEVVIVKCYHLFCQQCIQRSLEIRHRKCPGCGTAFGQNDVRLVKM

binding [4]: binds
B3: HA-tagged PRN2 (protein, UniProt Q9ZW82 1-321)
chain: MRAAINRANSLGGLFSFRFIRNIKSMSSSTSQDFVSRPVIKKVFAKLQKEGDGAVVRRGISRSEQKLLDPFLMLDEFSVSPPAGFPDHPHRGFETVTYVLEGGITHQDFKGHKGTIYAGDVQWMTAGRGIIHSEMPEEEVNKGLQLWINLSSNEKMIEPNYQELSHSDIPKAEQNGVEVKVIAGESMGIQSPVYTRTPTMFLDFTLQPGAQIHQNVPESWNAFAYILESGEGGGVFSSSNSSPIPAHSVVVFGPGNDGVSVWNKSSSKQLRFVLIAGEPIGEPVVQYGPFVMNTQAEIDMTIEDYHYGKNGFEMAKYWRSQ
